# Data from the supplement of paper PMC10849652.
# Amino acid sequences for entries named in this document (tags omitted). A change or cut given only in a name is not applied to a line headed by its entry.
# UniProt Q02252: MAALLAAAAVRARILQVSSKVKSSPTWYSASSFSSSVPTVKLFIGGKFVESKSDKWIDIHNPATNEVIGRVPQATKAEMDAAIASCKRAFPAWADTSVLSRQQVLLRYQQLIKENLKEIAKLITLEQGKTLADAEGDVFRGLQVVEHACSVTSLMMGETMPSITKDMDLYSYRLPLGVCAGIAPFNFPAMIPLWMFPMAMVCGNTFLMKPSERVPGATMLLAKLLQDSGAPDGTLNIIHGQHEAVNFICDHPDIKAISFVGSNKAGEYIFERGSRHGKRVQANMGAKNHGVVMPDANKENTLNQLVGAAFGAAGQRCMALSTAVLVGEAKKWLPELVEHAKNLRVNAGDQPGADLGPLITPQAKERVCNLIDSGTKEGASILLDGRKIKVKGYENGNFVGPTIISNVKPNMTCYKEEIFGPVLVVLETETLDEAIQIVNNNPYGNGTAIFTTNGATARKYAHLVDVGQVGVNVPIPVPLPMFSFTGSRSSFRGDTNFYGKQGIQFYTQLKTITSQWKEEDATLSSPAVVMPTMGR
# UniProt Q5VTE6: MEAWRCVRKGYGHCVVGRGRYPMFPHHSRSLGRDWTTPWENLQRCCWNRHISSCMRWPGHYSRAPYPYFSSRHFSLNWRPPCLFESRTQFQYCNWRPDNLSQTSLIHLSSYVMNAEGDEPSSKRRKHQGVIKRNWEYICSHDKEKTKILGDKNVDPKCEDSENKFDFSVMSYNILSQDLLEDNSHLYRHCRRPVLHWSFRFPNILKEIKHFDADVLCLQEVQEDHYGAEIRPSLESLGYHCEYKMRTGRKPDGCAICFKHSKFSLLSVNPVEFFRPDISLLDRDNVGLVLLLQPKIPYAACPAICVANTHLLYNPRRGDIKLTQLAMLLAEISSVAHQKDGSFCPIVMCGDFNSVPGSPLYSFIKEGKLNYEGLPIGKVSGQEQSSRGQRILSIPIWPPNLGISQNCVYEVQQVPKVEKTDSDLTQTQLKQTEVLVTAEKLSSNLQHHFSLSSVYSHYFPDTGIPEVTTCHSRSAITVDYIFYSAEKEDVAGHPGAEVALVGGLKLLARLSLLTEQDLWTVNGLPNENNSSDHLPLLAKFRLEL
# UniProt Q96Q42: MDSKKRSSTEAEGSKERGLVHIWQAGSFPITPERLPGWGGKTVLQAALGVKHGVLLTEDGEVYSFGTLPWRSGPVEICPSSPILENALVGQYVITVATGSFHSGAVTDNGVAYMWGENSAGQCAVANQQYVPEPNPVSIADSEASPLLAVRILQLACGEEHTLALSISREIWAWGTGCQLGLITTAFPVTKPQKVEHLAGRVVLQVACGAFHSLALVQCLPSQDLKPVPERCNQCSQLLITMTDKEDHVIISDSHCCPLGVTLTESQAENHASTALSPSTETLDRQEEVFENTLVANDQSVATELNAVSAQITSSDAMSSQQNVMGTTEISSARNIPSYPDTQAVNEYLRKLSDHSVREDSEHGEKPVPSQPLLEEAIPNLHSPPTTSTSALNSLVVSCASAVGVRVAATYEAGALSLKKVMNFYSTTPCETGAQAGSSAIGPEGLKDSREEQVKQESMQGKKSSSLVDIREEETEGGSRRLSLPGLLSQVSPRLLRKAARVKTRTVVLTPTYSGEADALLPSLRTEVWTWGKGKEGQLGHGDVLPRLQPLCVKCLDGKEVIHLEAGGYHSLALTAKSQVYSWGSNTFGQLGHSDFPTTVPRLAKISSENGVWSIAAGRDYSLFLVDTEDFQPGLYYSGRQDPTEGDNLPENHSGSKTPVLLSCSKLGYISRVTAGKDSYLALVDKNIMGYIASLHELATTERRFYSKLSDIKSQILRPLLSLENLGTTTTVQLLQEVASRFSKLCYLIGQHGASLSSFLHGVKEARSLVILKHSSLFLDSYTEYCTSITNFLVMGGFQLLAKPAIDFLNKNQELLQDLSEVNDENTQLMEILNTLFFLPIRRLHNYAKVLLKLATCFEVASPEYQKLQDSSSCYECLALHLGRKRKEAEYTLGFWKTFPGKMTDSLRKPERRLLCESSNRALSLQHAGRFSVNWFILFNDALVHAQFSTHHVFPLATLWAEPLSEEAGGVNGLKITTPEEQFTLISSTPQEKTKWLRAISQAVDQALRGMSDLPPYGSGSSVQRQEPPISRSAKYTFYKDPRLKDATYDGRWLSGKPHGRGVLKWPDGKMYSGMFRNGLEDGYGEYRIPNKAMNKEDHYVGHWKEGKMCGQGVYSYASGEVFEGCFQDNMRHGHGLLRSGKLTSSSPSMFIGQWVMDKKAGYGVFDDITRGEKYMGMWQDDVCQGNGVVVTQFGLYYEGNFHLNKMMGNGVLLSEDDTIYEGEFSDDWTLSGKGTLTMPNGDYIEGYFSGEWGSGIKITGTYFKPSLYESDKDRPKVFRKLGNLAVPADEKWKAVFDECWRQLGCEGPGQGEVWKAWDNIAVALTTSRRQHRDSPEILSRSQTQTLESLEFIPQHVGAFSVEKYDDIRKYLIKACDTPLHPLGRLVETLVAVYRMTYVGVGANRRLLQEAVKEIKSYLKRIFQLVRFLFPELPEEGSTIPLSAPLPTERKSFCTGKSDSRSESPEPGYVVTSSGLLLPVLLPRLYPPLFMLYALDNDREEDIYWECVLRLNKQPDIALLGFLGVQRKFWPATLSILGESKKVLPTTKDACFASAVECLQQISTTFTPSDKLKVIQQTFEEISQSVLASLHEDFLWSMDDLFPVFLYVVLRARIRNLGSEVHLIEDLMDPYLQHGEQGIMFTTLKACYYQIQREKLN
# UniProt P39687: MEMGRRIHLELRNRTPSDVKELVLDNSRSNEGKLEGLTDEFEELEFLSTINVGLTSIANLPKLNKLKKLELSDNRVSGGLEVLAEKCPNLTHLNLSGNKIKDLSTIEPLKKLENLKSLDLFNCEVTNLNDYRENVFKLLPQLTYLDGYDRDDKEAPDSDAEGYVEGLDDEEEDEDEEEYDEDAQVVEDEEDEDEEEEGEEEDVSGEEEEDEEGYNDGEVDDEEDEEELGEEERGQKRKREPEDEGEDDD
# UniProt P58335, whole entry, looked up: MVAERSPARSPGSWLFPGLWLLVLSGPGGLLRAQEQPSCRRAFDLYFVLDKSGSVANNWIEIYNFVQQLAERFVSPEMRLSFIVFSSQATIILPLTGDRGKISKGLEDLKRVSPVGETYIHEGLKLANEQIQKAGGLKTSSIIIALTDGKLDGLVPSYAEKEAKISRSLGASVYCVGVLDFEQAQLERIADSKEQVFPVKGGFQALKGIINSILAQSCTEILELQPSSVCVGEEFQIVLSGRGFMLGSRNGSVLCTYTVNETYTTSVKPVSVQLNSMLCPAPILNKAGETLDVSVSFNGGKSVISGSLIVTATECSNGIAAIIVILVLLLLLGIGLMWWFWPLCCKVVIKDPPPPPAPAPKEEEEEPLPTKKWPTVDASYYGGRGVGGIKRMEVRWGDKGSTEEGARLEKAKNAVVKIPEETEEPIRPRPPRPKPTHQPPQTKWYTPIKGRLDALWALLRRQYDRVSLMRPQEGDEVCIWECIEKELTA
# UniProt Q13367: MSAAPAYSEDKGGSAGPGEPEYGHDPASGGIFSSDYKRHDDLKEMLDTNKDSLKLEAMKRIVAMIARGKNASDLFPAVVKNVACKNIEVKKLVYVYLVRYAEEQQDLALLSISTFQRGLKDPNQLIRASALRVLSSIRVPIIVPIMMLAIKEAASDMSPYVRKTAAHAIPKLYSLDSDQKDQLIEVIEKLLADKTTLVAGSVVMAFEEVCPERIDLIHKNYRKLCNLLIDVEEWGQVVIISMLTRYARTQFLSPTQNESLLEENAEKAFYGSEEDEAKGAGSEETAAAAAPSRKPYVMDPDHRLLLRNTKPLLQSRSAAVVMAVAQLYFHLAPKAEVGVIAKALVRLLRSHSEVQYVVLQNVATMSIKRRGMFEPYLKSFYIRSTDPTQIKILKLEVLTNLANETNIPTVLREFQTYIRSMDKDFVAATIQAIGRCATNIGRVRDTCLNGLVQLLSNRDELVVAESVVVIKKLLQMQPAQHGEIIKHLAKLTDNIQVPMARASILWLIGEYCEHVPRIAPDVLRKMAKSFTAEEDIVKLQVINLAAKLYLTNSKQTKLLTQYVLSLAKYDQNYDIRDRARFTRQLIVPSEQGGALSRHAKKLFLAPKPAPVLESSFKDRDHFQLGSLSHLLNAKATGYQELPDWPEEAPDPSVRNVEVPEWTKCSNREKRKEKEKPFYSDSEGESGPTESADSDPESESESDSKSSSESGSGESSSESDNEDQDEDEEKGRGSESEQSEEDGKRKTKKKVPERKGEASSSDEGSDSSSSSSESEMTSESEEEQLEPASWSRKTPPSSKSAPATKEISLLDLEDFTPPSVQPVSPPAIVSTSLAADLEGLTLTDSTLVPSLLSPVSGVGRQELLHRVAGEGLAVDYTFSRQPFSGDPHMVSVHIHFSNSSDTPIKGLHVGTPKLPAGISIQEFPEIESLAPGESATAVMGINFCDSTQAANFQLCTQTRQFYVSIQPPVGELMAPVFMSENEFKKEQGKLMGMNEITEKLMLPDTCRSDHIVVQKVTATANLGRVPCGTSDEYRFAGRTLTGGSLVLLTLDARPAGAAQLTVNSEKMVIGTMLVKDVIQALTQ
# UniProt Q6NXT1: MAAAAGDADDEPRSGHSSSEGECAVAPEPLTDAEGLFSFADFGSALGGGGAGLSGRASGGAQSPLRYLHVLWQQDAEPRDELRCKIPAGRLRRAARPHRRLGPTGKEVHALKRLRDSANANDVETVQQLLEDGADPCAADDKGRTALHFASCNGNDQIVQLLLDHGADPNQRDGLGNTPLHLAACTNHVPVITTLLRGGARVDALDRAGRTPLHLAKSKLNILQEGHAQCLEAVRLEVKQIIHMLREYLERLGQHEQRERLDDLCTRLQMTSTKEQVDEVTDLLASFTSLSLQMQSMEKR
# UniProt P20073: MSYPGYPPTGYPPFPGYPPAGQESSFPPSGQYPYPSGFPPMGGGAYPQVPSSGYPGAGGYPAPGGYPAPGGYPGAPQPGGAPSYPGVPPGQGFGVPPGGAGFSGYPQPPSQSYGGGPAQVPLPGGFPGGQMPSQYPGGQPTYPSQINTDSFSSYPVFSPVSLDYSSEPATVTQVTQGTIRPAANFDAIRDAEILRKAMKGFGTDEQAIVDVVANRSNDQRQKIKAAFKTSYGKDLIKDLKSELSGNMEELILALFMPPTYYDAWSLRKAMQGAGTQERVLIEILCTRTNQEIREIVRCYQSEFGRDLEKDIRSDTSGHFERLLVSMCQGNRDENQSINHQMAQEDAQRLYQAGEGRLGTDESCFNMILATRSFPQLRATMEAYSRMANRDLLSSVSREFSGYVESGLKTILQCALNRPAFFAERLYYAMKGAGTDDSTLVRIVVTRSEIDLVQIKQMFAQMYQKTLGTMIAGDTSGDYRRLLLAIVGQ
# UniProt Q01432: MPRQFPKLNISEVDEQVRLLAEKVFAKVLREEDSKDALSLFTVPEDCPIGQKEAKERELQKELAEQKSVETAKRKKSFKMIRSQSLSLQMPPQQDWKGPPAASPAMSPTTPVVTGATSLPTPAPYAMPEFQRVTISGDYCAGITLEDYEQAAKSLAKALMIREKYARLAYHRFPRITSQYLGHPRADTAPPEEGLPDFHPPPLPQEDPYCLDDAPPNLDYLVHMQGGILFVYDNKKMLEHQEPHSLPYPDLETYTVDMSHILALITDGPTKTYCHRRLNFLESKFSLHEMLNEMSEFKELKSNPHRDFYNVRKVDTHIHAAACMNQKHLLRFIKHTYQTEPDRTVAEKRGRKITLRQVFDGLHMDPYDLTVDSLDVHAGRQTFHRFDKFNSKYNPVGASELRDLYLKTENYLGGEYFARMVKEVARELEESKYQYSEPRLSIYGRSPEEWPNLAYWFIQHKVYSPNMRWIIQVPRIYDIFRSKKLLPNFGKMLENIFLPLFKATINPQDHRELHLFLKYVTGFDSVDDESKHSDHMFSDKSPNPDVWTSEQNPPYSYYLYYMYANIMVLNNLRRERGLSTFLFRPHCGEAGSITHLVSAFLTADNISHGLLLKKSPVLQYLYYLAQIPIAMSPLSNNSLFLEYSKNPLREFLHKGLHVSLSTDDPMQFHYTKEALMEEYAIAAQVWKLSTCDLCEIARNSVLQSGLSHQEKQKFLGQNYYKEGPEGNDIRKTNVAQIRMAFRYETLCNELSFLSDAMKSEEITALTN
# UniProt P31749: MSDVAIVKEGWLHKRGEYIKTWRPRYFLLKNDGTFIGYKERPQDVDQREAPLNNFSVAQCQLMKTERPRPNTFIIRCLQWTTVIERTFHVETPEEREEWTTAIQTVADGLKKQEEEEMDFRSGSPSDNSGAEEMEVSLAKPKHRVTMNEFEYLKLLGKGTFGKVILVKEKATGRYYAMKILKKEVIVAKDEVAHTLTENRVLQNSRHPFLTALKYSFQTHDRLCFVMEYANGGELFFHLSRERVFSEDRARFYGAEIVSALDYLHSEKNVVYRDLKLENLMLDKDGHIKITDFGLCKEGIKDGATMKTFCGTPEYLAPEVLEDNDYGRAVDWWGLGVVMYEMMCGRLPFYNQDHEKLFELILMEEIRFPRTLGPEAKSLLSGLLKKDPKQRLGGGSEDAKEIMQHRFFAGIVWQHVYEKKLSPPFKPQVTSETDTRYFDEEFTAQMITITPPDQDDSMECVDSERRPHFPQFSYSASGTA
# Some of the results follow.
# Compound: C=CC(=O)N1CCC[C@@H](n2nc(-c3ccc(Oc4ccccc4)cc3)c3c(N)ncnc32)C1 [ibrutinib]
# Experiment: log2 fold change, soluble protein after heating vs DMSO (PISA); higher = thermal stabilisation; K562 lysate, 10 uM; active = over 0.2 and 3.5 SD of the protein, either way, in both replicates (recomputed)
# How it was run: (§1)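 A 30 min treatment with 10 μM compound was applied to crude K562 extract at 1 mg/mL protein in PBS pH 7.4 with 1 mM MgCl2. Heating for 3 min spanned 48°C-58°C, after which aliquots were pooled, adjusted to 0.5% NP-40 at 4°C and spun at 21,000xg for 90 min. TMTpro 16plex LC-MS/MS of the supernatant, with channel sums equalised, gave values recorded as log-two fold change in thermal stability against solvent controls, from duplicates.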
row,Target,log2 fold change
1,AP1S2 isoform 2 (UniProt P56377),inactive: -0.052
2,ANAPC10 (UniProt Q9UM13),inactive: -0.015
3,ANKRD13D isoform 3 (UniProt Q6ZTN6),inactive: 0.054
4,AP3D1 isoform 5 (UniProt O14617),inactive: 0.033
5,ALKBH2 (UniProt Q6NS38),inactive: 0.004
6,AP3S1 (UniProt Q92572),inactive: 0.025
7,ALDH6A1 (UniProt Q02252),inactive: 0.128
8,ANGEL2 (UniProt Q5VTE6),inactive: -0.09
9,ALS2 (UniProt Q96Q42),inactive: 0.013
10,AKT2 (UniProt P31751),inactive: -0.016
11,ANXA2 isoform 2 (UniProt P07355),inactive: -0.013
12,ANP32A (UniProt P39687),inactive: 0.003
13,ANTXR2 isoform 4 (UniProt P58335),inactive: 0.036
14,AP3B2 isoform 4 (UniProt Q13367),inactive: 0.015
15,ALDH18A1 (UniProt P54886),inactive: 0.006
16,ANKRD54 (UniProt Q6NXT1),inactive: -0.054
17,ALG2 (UniProt Q9H553),inactive: -0.077

row,Target,log2 fold change
1,ALDH4A1 (UniProt P30038),inactive: 0.064
2,ALDH1A1 (UniProt P00352),inactive: 0.092
3,ANKRD52 (UniProt Q8NB46),inactive: 0.01
4,ANXA7 (UniProt P20073),inactive: 0.002
5,AMPD3 isoform 4 (UniProt Q01432),inactive: 0.05
6,ALDOA (UniProt P04075),inactive: 0.025
7,ANXA2 (UniProt H0YL33),inactive: 0.235
8,AMPD2 (UniProt Q01433),inactive: -0.01
9,AP4E1 (UniProt Q9UPM8),inactive: -0.037
10,AKT1 (UniProt P31749),inactive: 0.028
11,AP1G1 isoform 2 (UniProt O43747),inactive: -0.017
12,ANKHD1 isoform 6 (UniProt Q8IWZ3),inactive: 0.009
13,ANXA1 (UniProt P04083),inactive: -0.001
14,ALKBH8 isoform 4 (UniProt Q96BT7),inactive: 0.025
15,AMD1 (UniProt P17707),inactive: -0.031
16,ANLN (UniProt Q9NQW6),inactive: 0.025
17,ALDH5A1 isoform 2 (UniProt P51649),inactive: 0.041

# Compound: CC(=O)c1cnc2ccc(-c3cc(Cl)c(O)c(Cl)c3)nc2c1N[C@H]1CC[C@H](CN(C)C)CC1
# Experiment: as above
# How it was run: as §1
row,Target,log2 fold change
1,AP1S2 isoform 2 (UniProt P56377),inactive: -0.005
2,ANAPC10 (UniProt Q9UM13),inactive: -0.017
3,ANKRD13D isoform 3 (UniProt Q6ZTN6),inactive: 0
4,AP3D1 isoform 5 (UniProt O14617),inactive: -0.012
5,ALKBH2 (UniProt Q6NS38),inactive: -0.029
6,AP3S1 (UniProt Q92572),inactive: 0.01
7,ALDH6A1 (UniProt Q02252),inactive: -0.006
8,ANGEL2 (UniProt Q5VTE6),inactive: -0.015
9,ALS2 (UniProt Q96Q42),inactive: 0
10,AKT2 (UniProt P31751),inactive: 0.006
11,ANXA2 isoform 2 (UniProt P07355),inactive: 0.012
12,ANP32A (UniProt P39687),inactive: -0.003
13,ANTXR2 isoform 4 (UniProt P58335),inactive: -0.027
14,AP3B2 isoform 4 (UniProt Q13367),inactive: -0.036
15,ALDH18A1 (UniProt P54886),inactive: 0.007
16,ANKRD54 (UniProt Q6NXT1),inactive: -0.002
17,ALG2 (UniProt Q9H553),inactive: 0.007

row,Target,log2 fold change
1,ALDH4A1 (UniProt P30038),inactive: 0.024
2,ALDH1A1 (UniProt P00352),inactive: 0.019
3,ANKRD52 (UniProt Q8NB46),inactive: -0.089
4,ANXA7 (UniProt P20073),inactive: -0.009
5,AMPD3 isoform 4 (UniProt Q01432),inactive: 0.001
6,ALDOA (UniProt P04075),inactive: -0.007
7,ANXA2 (UniProt H0YL33),inactive: -0.167
8,AMPD2 (UniProt Q01433),inactive: -0.004
9,AP4E1 (UniProt Q9UPM8),inactive: -0.056
10,AKT1 (UniProt P31749),inactive: 0.013
11,AP1G1 isoform 2 (UniProt O43747),inactive: -0.014
12,ANKHD1 isoform 6 (UniProt Q8IWZ3),inactive: -0.003
13,ANXA1 (UniProt P04083),inactive: 0.007
14,ALKBH8 isoform 4 (UniProt Q96BT7),inactive: -0.004
15,AMD1 (UniProt P17707),active: 0.464
16,ANLN (UniProt Q9NQW6),inactive: -0.027
17,ALDH5A1 isoform 2 (UniProt P51649),inactive: 0.018
